“Also recorded” adds a separate entry of the source.

The data set can be described thus: Direct interaction of 3HAA with H2O2 in vitro. The note with it: 3HAA media for oxidative stress assays. An excerpt: Superoxide dismutases degrade cellular superoxide to oxygen and H2O2.

On to `Nc1c(O)cccc1C(=O)O` [3HAA, 3-hydroxyanthranilic acid], for which the “red coloration of 3HAA media after addition of H2O2” value was “substantially diminished the red coloration; also recorded: H2O2 visibly reduces 3HAA in media”.

The values are drawn from patent US20220087962A1, “COMPOSITIONS AND METHODS FOR TREATING AGE-RELATED DISEASES OR CONDITIONS” (Arizona Board of Regents on Behalf of the University of …, priority 2019, published 2022).
